Experimental data published in US20020103111A1, “Inhibitors of MAdCAM-1-mediated interactions and methods of use therefor” (Millennium Pharmaceuticals, Inc., priority 1996, published 2002).
At least one structure is not confirmed: it was looked up by name or label, or the drawing left a doubt. Square brackets hold non-standard residues; d marks the D form. Peptide text beside a SMILES is read from it. NMeL = CN[C@@H](CC(C)C)C(=O)O

Amino acid sequences for entries named in this document (tags omitted). Residues count along the entry.
UniProt P13612, 34-1032: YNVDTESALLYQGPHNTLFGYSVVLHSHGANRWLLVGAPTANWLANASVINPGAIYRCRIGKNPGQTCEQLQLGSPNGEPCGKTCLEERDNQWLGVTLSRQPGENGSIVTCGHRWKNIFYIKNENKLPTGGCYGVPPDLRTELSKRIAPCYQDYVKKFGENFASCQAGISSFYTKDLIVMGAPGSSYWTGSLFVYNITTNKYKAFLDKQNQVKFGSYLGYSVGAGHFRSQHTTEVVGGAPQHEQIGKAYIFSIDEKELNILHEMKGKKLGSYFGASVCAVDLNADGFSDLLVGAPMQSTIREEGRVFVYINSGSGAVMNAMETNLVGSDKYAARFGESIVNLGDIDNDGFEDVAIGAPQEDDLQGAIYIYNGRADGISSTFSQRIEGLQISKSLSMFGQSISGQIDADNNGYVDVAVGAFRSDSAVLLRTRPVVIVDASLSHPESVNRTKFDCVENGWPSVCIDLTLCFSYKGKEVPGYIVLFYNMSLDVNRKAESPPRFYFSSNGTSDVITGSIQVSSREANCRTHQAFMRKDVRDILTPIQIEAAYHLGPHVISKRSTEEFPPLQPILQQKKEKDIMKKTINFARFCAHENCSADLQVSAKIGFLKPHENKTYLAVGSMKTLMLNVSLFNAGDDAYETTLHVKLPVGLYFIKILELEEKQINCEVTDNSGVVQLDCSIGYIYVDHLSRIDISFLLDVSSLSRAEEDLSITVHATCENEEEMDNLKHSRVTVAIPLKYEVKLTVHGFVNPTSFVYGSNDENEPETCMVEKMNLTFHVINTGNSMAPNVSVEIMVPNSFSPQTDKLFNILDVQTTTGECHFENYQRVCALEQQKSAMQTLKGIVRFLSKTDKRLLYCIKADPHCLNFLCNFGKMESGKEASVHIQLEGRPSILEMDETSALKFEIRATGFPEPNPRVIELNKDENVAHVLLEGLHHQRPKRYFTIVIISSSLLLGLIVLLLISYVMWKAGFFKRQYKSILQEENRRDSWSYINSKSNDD
UniProt P26010, 20-798: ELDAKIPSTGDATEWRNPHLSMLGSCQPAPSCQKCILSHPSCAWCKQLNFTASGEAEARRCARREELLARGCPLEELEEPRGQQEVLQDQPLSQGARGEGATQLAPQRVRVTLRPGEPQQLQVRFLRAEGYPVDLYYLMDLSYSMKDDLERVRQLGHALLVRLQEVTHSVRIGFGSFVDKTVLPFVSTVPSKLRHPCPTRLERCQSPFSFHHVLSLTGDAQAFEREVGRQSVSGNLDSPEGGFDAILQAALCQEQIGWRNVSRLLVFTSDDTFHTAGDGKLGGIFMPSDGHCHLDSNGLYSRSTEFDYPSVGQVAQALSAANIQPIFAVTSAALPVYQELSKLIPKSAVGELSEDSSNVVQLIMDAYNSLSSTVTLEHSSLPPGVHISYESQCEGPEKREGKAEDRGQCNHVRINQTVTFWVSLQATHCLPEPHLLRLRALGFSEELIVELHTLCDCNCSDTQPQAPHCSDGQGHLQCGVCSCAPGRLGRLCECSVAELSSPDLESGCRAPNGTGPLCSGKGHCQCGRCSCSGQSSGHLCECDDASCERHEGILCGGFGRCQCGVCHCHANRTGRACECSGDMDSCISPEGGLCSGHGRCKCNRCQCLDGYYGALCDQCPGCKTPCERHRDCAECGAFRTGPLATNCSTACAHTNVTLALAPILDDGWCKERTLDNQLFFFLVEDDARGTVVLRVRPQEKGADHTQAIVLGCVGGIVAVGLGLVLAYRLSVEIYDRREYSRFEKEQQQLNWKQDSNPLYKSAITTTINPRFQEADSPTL

Biological target: T1, murine MAdCAM-1 (MAdCAM-1/mCk fusion protein); α4β7-bearing HUT 78 cells (Homo sapiens, UniProt P13612+P26010)
T1 construct: host or cells: HUT 78 cells (endogenous α4β7); The MAdCAM-1/mCk partner was made in house in baculovirus-infected Sf9 insect cells, used as neat supernatant and captured by rat anti-mCk antibody
Assay: Adhesion of HUT 78 cells to MAdCAM-1/mCk fusion protein bound via capture antibody
Format: cell-based
Conditions: HUT 78 cell adhesion to MAdCAM-1/mCk; average of two determinations
Procedure: The compounds of the present invention were evaluated for their biological properties.
A soluble fusion protein comprising murine MAdCAM-1 was produced in a baculovirus expression system and used in the adhesion assay. A fusion gene in which sequences encoding the signal peptide and extracellular domain of murine MAdCAM-1 were fused to sequences encoding a constant region of the murine kappa light chain (mCk) was constructed, and cloned into a baculovirus shuttle vector. Fusion protein produced from the resulting construct contained the integrin binding sequences of murine MAdCAM-1 at the amino-terminus, and the mCk sequence at the carboxy-terminus. […]
Human T-cell lymphoma cells (HUT 78 cells) activated with Mn^+2 were used for the adhesion assay in a 96-well format. […] The adhesion of HUT 78 cells to MAdCAM-1/mCk fusion protein bound to wells via rat anti-mCk capture antibody was assessed in the presence or absence of each compound. […] Percent inhibition and IC50 values were determined. […]
Cell adhesion was measured in the presence or absence of compounds. […]
Additional determinations were conducted as needed, so that each IC50 was determined over a range which encompassed the IC50. […]
For each compound, a ratio was determined as follows: An average of the readings from duplicate wells was divided by an average of eight control wells (adhesion in the absence of any compound). […]

CC(=O)N(C)[C@@H](CC(C)C)C(=O)N[C@@H](CC(C)C)C(=O)N[C@@H](CC(=O)O)C(=O)N[C@H](C(=O)N[C@@H](CO)C(=O)N[C@@H](CC(C)C)C(N)=O)[C@@H](C)O [Example 17, Ac-MeLeu-Leu-Asp-Thr-Ser-Leu] (Ac-[NMeL]LDTSL-NH2)
IC50: 1320 µM
